Results taken from PMC5996148.
The other results are listed elsewhere or left out.

Tests used:
Assay in all cases: protein microarray (ProtoArray v5.0), streptavidin-Alexa Fluor 647
Details in all cases: 3'-biotin; 20 mM Tris (pH 7.5), 5 mM MgCl2, 100 mM KCl, 0.1% Tween-20, A/T-rich and random oligonucleotide blockers; temperature not stated; high values mean tight binding
FLJ43980 (human) = test system: FLJ43980 (human)
FLOT2 (human) = test system: FLOT2 (human)
FLT3LG (human) = test system: FLT3LG (human)
FN3KRP (human) = test system: FN3KRP (human)
FNBP1 (human) = test system: FNBP1 (human)
FOXP1 (human) = test system: FOXP1 (human)
FREQ (human) = test system: FREQ (human)
FRMD8 (human) = test system: FRMD8 (human)
FTL (human) = test system: FTL (human)
FUNDC2 (human) = test system: FUNDC2 (human)

GGGGACAGGGGTATGGGGAGGGG [G4-3 biotinylated (CtG)]
binding signal (FLJ43980 (human)): -0.336 z-score | binding signal (FLOT2 (human)): -0.324 z-score | binding signal (FLT3LG (human)): -0.312 z-score | binding signal (FN3KRP (human)): -0.315 z-score | binding signal (FNBP1 (human)): -0.326 z-score | binding signal (FOXP1 (human)): -0.33 z-score | binding signal (FREQ (human)): -0.333 z-score | binding signal (FRMD8 (human)): -0.324 z-score | binding signal (FTL (human)): -0.327 z-score | binding signal (FUNDC2 (human)): -0.332 z-score
